{"source": "paper PMC6271241", "about": "“Several Human Cyclin-Dependent Kinase Inhibitors, Structurally Related to Roscovitine, As New Anti-Malarial Agents” (Molecules, 2014)", "key": {"GSK-3α/β": {"molecular_target": "GSK-3α/β", "experiment": "GSK-3α/β kinase assay (GS-1 peptide)", "conditions": "15 µM ATP; Table 1; >10 = no activity at 10 µM"}, "Pf3D7": {"tested_on": "Pf3D7", "experiment": "[3H]hypoxanthine incorporation growth assay, Pf3D7", "assay_type": "cell-based", "conditions": "Plasmodium falciparum", "protocol": "(§1) A selection of 15 molecules 4b–c, 10–13 representing the different 2,6,9-trisubstituted purine series, including newly synthesized products was screened as anti-malarial agents on two different P. falciparum strains, Pf3D7, a standard drug-sensitive African stain, and Pf7G8, a brazilian chloroquino-resistant strain (Figure 3). The compound activity was evaluated during the parasitic erythocytic cycle, by the means of a [^3H] hypoxanthine incorporation assay. It is directly correlated to parasite viability, as described in the experimental section.\n(§2) At first, the activity of the fifteen compounds was screened at three different concentrations (10, 50 and 100 µM) on Pf3D7. Chloroquine which is not a kinase inhibitor, but which is the antimalarial reference drug was used as the positive control. […] Chloroquine was again used as a positive control.\n(§3) Compounds were tested against synchronous ring-stage parasites of Pf3D7 and Pf7G8 strains. Drugs testing were carried out in 96-well microtiter plates. The chloroquine (CQ) diphosphate was purchased from Sigma (Lyon, France). […] For each assay, each drug dilution was analyzed in triplicate. […]"}, "Pf7G8": {"tested_on": "Pf7G8", "experiment": "[3H]hypoxanthine incorporation growth assay, Pf7G8", "assay_type": "cell-based", "conditions": "Plasmodium falciparum", "protocol": "as §1, §2, §3"}}, "note": "Read-outs that look alike come from different tables or passages of the source.", "data": [{"smiles": "CC[C@H](CO)Nc1nc(NCc2ccccc2)c2ncn(C(C)C)c2n1", "note": "[Compound 1, (R)-roscovitine, reference compound]", "values": [{"measurement": "IC50 GSK-3αβ", "setting": "GSK-3α/β", "result": "N.I."}, {"measurement": "IC50", "setting": "Pf3D7; 48 h, read-out: Growth IC50 Pf3D7", "result": 10.5, "unit": "µM"}, {"measurement": "IC50", "setting": "Pf3D7; read-out: IC50 on P. falciparum Strains Pf3D7", "result": 10.5, "unit": "µM"}, {"measurement": "IC50", "setting": "Pf7G8; 48 h, read-out: Growth IC50 Pf7G8", "result": 12.6, "unit": "µM"}, {"measurement": "IC50", "setting": "Pf7G8; read-out: IC50 on P. falciparum Strains Pf7G8", "result": 12.6, "unit": "µM"}]}]}
